Literature values as cited in patent US8466203B2, “Method of stabilizing human eye tissue by reaction with nitrite and related agents such as nitro compounds” (priority 2006, dated 2013).

Tested on: corneal endothelial cell
Details: 3 hrs exposure, rabbit organ culture, electron microscopy, Green 1977; cited from earlier work

In the case of `CCCCCCCCCCCCCCCC[n+]1ccccc1` [Cetylpyridinium chloride], the Toxic concentration is given as 10 µM.
